The values that follow come from paper PMC10616211.

Chains of the proteins cited; added tags and fusions are not shown.
UniProt O60610: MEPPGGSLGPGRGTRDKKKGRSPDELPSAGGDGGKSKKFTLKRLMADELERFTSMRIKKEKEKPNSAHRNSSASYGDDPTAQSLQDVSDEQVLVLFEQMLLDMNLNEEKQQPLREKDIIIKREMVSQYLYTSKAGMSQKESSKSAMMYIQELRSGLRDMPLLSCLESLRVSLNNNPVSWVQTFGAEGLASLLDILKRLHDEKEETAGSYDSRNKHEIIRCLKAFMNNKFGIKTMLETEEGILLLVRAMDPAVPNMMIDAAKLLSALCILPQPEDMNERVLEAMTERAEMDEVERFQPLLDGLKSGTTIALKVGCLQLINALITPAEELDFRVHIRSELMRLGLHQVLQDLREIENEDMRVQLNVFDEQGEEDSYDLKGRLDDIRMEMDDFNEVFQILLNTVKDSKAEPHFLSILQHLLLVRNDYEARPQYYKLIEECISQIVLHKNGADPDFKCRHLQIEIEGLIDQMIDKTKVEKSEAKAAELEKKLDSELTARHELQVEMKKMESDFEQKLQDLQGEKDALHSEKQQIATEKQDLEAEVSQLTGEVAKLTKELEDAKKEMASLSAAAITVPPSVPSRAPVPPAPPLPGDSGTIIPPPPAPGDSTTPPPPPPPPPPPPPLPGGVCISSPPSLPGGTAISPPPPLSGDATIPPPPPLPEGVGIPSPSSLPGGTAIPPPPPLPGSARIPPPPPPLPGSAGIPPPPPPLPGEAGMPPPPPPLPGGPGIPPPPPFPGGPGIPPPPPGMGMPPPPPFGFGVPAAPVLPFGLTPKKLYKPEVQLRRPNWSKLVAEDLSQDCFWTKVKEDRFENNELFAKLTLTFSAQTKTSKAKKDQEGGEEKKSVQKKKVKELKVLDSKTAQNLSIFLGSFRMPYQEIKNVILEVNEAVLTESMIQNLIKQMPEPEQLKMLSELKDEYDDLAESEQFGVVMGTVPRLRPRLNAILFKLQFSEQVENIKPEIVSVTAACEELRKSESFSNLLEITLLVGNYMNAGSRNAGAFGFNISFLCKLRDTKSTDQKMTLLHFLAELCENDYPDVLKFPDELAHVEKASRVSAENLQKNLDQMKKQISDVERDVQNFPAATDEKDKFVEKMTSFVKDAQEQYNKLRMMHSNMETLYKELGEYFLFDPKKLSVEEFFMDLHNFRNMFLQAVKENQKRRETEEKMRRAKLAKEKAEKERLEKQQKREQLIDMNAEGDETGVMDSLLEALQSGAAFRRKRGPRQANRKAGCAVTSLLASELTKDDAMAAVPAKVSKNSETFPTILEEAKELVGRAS
UniProt O08808: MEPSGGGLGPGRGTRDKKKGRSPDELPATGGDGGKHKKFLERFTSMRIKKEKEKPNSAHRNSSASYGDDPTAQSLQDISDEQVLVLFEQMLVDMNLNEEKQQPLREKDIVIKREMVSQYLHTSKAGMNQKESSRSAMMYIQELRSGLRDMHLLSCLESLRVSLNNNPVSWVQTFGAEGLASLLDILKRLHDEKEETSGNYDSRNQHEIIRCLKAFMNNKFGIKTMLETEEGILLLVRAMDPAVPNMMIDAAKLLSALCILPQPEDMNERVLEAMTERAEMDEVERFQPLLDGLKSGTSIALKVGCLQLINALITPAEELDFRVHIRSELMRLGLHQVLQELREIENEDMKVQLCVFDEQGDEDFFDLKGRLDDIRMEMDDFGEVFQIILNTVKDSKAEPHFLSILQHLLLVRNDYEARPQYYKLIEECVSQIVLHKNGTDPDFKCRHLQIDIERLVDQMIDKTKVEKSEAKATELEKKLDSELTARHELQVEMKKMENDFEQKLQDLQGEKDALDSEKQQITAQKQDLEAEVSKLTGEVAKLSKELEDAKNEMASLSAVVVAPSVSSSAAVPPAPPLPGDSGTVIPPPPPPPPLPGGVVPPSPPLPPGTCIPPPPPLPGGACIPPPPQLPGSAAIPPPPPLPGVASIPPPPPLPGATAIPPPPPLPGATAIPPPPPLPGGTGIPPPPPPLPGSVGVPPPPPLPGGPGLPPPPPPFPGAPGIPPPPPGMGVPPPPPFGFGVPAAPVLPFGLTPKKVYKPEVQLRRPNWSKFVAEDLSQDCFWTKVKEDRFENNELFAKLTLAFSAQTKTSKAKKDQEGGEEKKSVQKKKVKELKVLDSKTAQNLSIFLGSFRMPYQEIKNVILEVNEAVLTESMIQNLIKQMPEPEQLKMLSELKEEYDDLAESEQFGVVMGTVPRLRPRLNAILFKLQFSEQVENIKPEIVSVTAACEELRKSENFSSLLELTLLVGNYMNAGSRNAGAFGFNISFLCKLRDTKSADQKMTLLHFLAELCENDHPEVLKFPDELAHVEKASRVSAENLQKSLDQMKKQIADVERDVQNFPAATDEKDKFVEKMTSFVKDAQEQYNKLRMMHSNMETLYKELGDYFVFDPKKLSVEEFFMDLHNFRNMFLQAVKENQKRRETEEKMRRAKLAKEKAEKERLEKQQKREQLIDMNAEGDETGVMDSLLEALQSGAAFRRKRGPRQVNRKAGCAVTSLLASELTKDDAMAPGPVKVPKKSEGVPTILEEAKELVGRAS

No constants are given. Whether binding was seen depends on the method and setting. In cells and extracts the contact can be indirect. Some binding calls cover weakened binding; strength is not graded here.

Assay [1] has as its target T1, MFN2, endogenous in human microvascular endothelial cells (HMVECs) (human (endogenous in HMVECs)) (UniProt O95140).
T1 sequence: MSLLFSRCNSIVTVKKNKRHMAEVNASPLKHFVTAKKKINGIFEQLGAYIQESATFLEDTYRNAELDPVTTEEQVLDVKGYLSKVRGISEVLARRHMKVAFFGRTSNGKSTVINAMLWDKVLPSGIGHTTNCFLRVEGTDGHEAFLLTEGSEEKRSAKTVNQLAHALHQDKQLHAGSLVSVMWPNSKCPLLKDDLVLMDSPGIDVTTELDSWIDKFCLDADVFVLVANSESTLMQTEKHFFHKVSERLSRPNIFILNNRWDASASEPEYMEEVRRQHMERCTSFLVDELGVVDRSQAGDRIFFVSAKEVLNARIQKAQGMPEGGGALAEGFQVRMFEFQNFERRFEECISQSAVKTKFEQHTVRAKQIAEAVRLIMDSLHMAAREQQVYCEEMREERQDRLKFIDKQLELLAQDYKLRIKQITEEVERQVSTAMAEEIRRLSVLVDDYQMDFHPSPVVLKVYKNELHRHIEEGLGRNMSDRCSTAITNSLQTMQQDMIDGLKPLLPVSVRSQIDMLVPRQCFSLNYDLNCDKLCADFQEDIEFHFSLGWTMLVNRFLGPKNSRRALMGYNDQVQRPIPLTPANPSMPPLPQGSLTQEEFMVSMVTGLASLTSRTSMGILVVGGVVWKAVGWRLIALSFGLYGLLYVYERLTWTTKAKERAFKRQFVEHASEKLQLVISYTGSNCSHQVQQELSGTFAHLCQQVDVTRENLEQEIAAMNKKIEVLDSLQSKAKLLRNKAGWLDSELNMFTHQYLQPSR
Description: proximity ligation; Duolink PLA on fixed cells (H9C2, HMVECs, BMDMs), endogenous proteins, rabbit anti-DIAPH1 and mouse anti-MFN2; shScr/WT against shDIAPH1/gDKO cells.

In assay [2] the target is T2, MFN2, endogenous in mouse bone marrow-derived macrophages (BMDMs) (mouse (endogenous in BMDMs)) (UniProt Q80U63).
T2 sequence: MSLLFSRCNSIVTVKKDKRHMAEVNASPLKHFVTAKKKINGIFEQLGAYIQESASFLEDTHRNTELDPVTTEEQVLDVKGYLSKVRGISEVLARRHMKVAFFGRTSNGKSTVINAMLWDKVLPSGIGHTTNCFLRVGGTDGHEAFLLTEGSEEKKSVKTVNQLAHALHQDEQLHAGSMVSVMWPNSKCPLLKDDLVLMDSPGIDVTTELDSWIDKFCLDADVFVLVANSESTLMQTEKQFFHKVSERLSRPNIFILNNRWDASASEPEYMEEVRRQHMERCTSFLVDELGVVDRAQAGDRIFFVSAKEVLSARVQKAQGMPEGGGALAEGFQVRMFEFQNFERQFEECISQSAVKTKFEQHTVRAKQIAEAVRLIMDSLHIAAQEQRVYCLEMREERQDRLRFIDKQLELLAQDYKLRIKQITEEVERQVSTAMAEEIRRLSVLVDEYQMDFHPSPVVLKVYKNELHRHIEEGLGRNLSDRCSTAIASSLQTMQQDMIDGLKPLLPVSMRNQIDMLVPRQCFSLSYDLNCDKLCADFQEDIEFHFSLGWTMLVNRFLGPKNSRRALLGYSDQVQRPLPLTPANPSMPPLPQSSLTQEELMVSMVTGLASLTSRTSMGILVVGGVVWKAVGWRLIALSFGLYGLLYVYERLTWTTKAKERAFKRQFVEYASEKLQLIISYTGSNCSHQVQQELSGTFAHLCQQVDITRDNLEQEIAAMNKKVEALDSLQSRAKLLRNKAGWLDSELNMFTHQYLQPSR
Described as above.

For assay [3], the target named is T3, MFN2, endogenous mouse (bone marrow-derived macrophages) (mouse (endogenous in BMDMs)) (UniProt Q80U63).
T3 sequence: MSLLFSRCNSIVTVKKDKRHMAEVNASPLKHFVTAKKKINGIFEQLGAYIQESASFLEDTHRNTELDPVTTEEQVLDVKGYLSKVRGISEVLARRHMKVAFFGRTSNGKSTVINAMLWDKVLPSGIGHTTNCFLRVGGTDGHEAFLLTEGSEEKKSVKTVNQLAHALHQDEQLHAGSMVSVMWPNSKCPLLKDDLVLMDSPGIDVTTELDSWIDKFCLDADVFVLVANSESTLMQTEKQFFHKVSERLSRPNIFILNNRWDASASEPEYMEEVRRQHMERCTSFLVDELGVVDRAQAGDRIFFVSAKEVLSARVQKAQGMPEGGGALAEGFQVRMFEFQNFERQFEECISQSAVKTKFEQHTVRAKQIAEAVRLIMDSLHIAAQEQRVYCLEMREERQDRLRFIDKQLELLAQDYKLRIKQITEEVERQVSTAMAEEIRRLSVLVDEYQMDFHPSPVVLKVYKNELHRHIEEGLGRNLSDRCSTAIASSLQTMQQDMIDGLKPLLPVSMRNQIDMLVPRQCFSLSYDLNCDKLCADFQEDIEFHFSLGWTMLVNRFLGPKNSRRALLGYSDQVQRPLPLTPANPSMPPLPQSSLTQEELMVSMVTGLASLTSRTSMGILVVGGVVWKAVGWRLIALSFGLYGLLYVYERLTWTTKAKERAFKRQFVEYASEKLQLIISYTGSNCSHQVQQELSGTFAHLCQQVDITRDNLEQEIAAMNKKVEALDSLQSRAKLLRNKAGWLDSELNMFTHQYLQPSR
Description: proximity ligation; Duolink PLA on fixed mouse bone marrow-derived macrophages, with and without Diaph1.

As for “DIAPH1, endogenous in human microvascular endothelial cells (HMVECs) (from UniProt O60610 1-1272)”, in assay [1], the binding result is listed as “binds”.
As to “DIAPH1, endogenous in mouse bone marrow-derived macrophages (BMDMs) (from UniProt O08808 1-1255)”, the binding result in assay [2] is on record as “binds”.
On to “DIAPH1, endogenous mouse (bone marrow-derived macrophages) (from UniProt O08808 1-1255)”, for which the binding result in assay [3] is on record as “binds”.
